Patent US10208210B2, “Hydrophilic oil repellent and production method of same, surface coating material, coating film, resin composition, oil-water separation filter material, and porous body” (MITSUBISHI MATERIALS CORPORATION, priority 2014, dated 2019)

Test: Oil water separation test with treated polypropylene nonwoven fabric, normal pressure filtration apparatus
Settings: polypropylene nonwoven fabric treated with 9 g compound + 1 g polyvinyl butyral in 90 g methanol; 40 mL water + 40 mL n-hexadecane

Row | SMILES | time until oil and water were completely separated
1 | O=C(O)C(F)(F)C(F)(F)N(C(F)(F)C(F)(F)C(F)(F)C(F)(F)F)C(F)(F)C(F)(F)C(F)(F)C(F)(F)F.[Ca] [Synthesis Example 1, perfluoro(3-dibutylaminopropionic acid) calcium] | about 72 seconds
2 | O=C(O)C(F)(C(F)(F)F)C(F)(F)N1C(F)(C(F)(F)F)C(F)(F)OC(F)(F)C1(F)C(F)(F)F.[Ca] (centres unmarked) [Synthesis Example 35, perfluoro[2-methyl-3-(3,5-dimethylmorpholino)propionic acid] calcium] | about 85 seconds
